# Values quoted from earlier work in US12509463B2, “JAK inhibitor and preparation method therefor” (FELICAMED BIOTECHNOLOGY CO., LTD., priority 2019, dated 2025).
# Chains of the proteins cited; added tags and fusions are not shown. Residues count along the entry.
# UniProt P08581, 25-1390: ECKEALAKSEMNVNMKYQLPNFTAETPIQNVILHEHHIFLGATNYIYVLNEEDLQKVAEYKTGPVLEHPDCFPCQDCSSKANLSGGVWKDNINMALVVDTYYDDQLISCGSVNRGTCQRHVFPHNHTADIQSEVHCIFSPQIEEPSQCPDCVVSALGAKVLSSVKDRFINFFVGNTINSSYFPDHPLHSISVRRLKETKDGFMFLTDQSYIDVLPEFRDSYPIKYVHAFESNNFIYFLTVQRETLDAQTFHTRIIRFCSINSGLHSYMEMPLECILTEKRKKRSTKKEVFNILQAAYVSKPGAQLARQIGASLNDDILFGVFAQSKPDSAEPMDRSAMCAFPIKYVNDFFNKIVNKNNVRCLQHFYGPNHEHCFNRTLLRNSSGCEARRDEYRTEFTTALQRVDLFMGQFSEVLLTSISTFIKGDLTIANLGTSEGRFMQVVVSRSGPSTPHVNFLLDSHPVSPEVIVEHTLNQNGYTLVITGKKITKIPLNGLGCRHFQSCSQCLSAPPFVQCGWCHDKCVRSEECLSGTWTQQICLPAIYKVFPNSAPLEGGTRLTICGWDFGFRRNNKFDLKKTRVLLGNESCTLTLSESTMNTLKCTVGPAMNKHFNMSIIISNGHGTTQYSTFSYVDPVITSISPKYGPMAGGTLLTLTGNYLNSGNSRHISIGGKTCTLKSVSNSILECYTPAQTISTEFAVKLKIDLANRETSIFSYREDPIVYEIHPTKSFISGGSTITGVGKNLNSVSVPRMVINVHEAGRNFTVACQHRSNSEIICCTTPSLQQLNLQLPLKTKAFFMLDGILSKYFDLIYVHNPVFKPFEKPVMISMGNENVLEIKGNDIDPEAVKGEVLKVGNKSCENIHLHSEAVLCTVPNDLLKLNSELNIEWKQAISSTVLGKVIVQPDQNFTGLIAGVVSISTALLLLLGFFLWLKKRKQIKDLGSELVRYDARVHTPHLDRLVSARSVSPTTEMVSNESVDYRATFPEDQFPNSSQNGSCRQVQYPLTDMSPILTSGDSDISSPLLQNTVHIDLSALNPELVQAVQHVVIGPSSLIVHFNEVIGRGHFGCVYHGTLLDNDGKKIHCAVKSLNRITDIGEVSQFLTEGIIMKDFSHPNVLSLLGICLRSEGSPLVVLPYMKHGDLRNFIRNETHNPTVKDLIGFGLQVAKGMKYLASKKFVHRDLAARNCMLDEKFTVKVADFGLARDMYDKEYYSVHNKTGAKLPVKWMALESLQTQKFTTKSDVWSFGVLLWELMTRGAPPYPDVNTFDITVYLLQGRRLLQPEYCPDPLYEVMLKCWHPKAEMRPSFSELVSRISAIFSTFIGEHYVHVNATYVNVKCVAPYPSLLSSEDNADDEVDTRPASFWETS
# UniProt O96017, whole entry, species assumed: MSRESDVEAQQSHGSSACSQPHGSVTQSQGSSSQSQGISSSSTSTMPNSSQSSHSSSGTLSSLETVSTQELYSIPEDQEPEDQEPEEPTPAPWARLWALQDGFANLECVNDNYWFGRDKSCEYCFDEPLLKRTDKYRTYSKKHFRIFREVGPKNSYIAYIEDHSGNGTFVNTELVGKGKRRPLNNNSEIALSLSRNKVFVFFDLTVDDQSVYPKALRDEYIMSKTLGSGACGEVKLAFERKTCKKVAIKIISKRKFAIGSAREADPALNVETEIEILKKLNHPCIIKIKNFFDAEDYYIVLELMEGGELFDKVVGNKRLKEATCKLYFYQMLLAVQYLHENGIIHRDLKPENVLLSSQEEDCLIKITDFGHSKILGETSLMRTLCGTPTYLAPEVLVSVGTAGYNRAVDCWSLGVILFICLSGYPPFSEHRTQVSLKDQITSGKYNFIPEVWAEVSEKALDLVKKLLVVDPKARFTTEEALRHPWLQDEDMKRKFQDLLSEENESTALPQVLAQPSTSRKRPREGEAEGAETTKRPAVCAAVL
# At least one compound was matched to its structure with a doubt left.
# Key:
# c-Met = c-Met (Homo sapiens, UniProt P08581); conditions: cited from earlier work
# Chk2 = Chk2 (Homo sapiens, UniProt O96017); conditions: cited from earlier work
smiles,measurement,setting,value
CCS(=O)(=O)N1CC(CC#N)(n2cc(-c3ncnc4[nH]ccc34)cn2)C1 [Baricitinib],inhibiting effect on c-Met,c-Met,no inhibiting effect
same,inhibiting effect on Chk2,Chk2,no inhibiting effect
